Test results reported in patent US20040180862A1, “Compositions and methods for inhibiting bone resorption” (priority 2001, published 2004).

How the values were obtained:
skin [1] = assay: Skin irritation after subcutaneous injection, histology (hematoxylin and eosin, affected area); set-up: species or system Rats; settings: rat, in vivo, sc, 0.5 mg/kg
skin [2] = settings: rat, in vivo, sc, 0.5 mg/kg, 5 days

## NCCCC(O)(P(=O)(O)O)P(=O)(O)O [ALN, 4-amino-1-hydroxybutylidene-1,1-bisphosphonic acid monosodium trihydrate]
Skin [1]
  skin irritation: Skin irritation induced
Skin [2]
  volume of affected skin area: 280 mm^3
